Measured values: PMC5584048
Results are given in words; binding and its absence hold for the method and conditions named. Binding seen in cells or lysates may run through a third protein. A result given as binding can be weak or reduced; the word gives no strength.

Assays:
[1] = biological target: T1, transmembrane protein 147 (TMEM147), endogenous in goat PBMC (goat (endogenous in PBMC)) (UniProt I6VSD2); experiment: co-IP; reverse IP: goat PBMC incubated with rMNh or rMCh for 12 h, washed and lysed; 1 mg lysate precipitated overnight at 4 °C with rat anti-TMEM63A-NO or anti-TMEM147-O IgG and Protein A/G agarose; blot with anti-MNh or anti-MCh IgG; normal rat IgG as control; only the binder purified
T1 sequence: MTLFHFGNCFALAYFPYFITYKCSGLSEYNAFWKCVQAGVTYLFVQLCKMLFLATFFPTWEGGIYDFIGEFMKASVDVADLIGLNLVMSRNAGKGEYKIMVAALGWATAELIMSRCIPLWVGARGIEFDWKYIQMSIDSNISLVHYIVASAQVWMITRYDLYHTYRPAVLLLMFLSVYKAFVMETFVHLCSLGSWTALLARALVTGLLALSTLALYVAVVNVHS

[2] = biological target: T2, transmembrane protein 63A (TMEM63A), endogenous in goat PBMC (goat (endogenous in PBMC)); experiment: as above
T2 sequence: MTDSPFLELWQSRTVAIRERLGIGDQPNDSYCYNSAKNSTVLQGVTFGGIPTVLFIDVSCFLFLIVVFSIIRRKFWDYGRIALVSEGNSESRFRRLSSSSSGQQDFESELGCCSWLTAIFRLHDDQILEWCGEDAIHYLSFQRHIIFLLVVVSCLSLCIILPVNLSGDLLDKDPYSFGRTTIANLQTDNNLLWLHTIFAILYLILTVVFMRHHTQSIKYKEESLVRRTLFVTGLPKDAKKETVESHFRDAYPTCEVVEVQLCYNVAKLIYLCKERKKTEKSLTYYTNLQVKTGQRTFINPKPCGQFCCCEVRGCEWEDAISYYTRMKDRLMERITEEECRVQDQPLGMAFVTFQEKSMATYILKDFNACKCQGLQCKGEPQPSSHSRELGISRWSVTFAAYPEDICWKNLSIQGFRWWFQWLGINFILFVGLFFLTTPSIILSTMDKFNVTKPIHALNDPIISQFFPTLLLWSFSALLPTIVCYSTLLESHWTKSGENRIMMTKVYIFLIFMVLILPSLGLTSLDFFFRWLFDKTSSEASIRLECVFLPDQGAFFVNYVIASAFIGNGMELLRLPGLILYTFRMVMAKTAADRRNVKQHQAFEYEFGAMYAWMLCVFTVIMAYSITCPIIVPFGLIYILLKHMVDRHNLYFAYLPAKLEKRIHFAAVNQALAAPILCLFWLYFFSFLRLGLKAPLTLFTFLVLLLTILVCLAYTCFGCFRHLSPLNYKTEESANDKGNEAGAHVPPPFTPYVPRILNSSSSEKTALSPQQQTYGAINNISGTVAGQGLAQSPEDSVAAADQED

[3] = biological target: recombinant N-terminal carbohydrate recognition domain of Hco-gal-m (rMNh) (Haemonchus contortus); experiment: co-IP; forward IP: goat PBMC incubated with rMNh or rMCh for 12 h, washed and lysed; 1 mg lysate precipitated overnight at 4 °C with rat anti-MNh or anti-MCh IgG and Protein A/G agarose; blot with anti-TMEM63A-NO or anti-TMEM147-O IgG; normal rat IgG as control; only the target purified
[4] = biological target: recombinant C-terminal carbohydrate recognition domain of Hco-gal-m (rMCh) (Haemonchus contortus); experiment: as above

Q: Which binding [1] does the source give for “recombinant C-terminal carbohydrate recognition domain of Hco-gal-m (rMCh) (Haemonchus contortus) (domain or fragment)” here?
A: The binding was “binds”.

Q: For “recombinant N-terminal carbohydrate recognition domain of Hco-gal-m (rMNh) (Haemonchus contortus) (domain or fragment)”, which binding [2] is on record?
A: The binding was “binds”.

B1: transmembrane protein 63A (TMEM63A), endogenous in goat PBMC (receptor, UniProt A0A452G813 1-803)
chain: MTDSPFLELWQSRTVAIRERLGIGDQPNDSYCYNSAKNSTVLQGVTFGGIPTVLFIDVSCFLFLIVVFSIIRRKFWDYGRIALVSEGNSESRFRRLSSSSSGQQDFESELGCCSWLTAIFRLHDDQILEWCGEDAIHYLSFQRHIIFLLVVVSCLSLCIILPVNLSGDLLDKDPYSFGRTTIANLQTDNNLLWLHTIFAILYLILTVVFMRHHTQSIKYKEESLVRRTLFVTGLPKDAKKETVESHFRDAYPTCEVVEVQLCYNVAKLIYLCKERKKTEKSLTYYTNLQVKTGQRTFINPKPCGQFCCCEVRGCEWEDAISYYTRMKDRLMERITEEECRVQDQPLGMAFVTFQEKSMATYILKDFNACKCQGLQCKGEPQPSSHSRELGISRWSVTFAAYPEDICWKNLSIQGFRWWFQWLGINFILFVGLFFLTTPSIILSTMDKFNVTKPIHALNDPIISQFFPTLLLWSFSALLPTIVCYSTLLESHWTKSGENRIMMTKVYIFLIFMVLILPSLGLTSLDFFFRWLFDKTSSEASIRLECVFLPDQGAFFVNYVIASAFIGNGMELLRLPGLILYTFRMVMAKTAADRRNVKQHQAFEYEFGAMYAWMLCVFTVIMAYSITCPIIVPFGLIYILLKHMVDRHNLYFAYLPAKLEKRIHFAAVNQALAAPILCLFWLYFFSFLRLGLKAPLTLFTFLVLLLTILVCLAYTCFGCFRHLSPLNYKTEESANDKGNEAGAHVPPPFTPYVPRILNSSSSEKTALSPQQQTYGAINNISGTVAGQGLAQSPEDSVAAADQED
Q: Which binding [3] does the source give for B1 here?
A: The binding was “binds”.

B2: transmembrane protein 147 (TMEM147), endogenous in goat PBMC (receptor, UniProt I6VSD2 1-224)
chain: MTLFHFGNCFALAYFPYFITYKCSGLSEYNAFWKCVQAGVTYLFVQLCKMLFLATFFPTWEGGIYDFIGEFMKASVDVADLIGLNLVMSRNAGKGEYKIMVAALGWATAELIMSRCIPLWVGARGIEFDWKYIQMSIDSNISLVHYIVASAQVWMITRYDLYHTYRPAVLLLMFLSVYKAFVMETFVHLCSLGSWTALLARALVTGLLALSTLALYVAVVNVHS
Q: With B2 as the molecule, how does the binding [4] read?
A: The binding was “binds”.
